Results on three substances are retold here after article PMC11371196.

Amino acid sequences for entries named in this document (tags omitted). A change or cut given only in a name is not applied to a line headed by its entry.
UniProt Q9M2D8: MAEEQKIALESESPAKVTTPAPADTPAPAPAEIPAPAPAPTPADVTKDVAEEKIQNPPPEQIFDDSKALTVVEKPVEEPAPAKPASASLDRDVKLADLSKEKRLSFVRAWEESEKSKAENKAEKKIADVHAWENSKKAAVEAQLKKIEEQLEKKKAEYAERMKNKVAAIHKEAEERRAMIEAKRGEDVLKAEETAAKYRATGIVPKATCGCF
UniProt O80837: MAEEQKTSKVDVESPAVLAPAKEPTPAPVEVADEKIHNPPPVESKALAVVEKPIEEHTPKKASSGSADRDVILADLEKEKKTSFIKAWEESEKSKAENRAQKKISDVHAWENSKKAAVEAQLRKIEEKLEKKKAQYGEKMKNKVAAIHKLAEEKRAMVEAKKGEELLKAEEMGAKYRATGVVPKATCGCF
UniProt Q9FX32: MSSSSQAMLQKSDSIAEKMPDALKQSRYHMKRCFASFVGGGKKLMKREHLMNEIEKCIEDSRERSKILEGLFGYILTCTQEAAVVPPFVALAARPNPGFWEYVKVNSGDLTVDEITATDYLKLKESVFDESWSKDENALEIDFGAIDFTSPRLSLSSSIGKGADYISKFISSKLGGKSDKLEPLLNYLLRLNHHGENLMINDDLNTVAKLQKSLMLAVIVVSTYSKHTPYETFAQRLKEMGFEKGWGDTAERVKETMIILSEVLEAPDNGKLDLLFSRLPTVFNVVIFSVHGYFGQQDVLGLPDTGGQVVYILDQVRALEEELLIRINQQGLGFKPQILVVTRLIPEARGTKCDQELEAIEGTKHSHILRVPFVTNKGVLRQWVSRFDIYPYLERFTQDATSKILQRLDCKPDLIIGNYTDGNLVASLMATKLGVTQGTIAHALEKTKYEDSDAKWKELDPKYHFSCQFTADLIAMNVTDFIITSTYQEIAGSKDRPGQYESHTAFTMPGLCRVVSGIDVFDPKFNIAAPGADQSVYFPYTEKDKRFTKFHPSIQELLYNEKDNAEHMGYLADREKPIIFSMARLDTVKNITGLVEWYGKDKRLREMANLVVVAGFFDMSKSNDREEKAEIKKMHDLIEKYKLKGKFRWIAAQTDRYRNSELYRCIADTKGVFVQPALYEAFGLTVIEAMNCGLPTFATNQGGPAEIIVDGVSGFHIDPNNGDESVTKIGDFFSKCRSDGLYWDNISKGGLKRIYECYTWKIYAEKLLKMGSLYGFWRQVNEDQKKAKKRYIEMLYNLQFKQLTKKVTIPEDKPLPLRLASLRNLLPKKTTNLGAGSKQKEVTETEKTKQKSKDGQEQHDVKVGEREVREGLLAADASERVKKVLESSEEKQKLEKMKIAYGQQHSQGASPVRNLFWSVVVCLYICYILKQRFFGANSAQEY

Results are given in words; binding and its absence hold for the method and conditions named. Binding seen in cells or lysates may run through a third protein. These calls come from enrichment with a bait or labelling near it, and not all partners need be listed. Tags and fused reporters may be left off the sequences shown.

Common to all, as to assay: proximity labelling; TurboID fusions under ProUBQ10 in 14-day-old Arabidopsis seedlings, 50 μM biotin for 3 h at room temperature; biotinylated proteins enriched on streptavidin beads, TMT LC-MS/MS; compared with wild-type Col-0 and between baits
The target of assay [1] is T1, PDLP5-TurboID-3xFlag (Arabidopsis thaliana) (UniProt Q8GUJ2).
T1 sequence: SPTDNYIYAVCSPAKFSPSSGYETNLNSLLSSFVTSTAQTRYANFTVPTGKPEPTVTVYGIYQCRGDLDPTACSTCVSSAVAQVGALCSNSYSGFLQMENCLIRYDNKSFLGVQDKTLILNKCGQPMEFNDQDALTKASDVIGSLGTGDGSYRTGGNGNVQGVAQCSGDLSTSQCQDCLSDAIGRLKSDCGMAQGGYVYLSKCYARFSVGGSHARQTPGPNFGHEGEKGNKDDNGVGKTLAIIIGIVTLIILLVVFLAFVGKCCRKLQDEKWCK

The target of assay [2] is T2, PDLP6-TurboID-3xFlag (Arabidopsis thaliana) (UniProt Q9ZU94).
T2 sequence: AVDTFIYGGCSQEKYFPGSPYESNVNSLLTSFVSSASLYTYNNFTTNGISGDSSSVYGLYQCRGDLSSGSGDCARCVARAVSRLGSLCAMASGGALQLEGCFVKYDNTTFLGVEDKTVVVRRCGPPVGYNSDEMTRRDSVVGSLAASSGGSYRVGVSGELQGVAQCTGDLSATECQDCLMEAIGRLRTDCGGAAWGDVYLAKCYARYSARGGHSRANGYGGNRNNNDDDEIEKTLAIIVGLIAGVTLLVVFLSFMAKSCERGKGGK

The target of assay [3] is T3, 3xFlag-TurboID-MCTP3 (Arabidopsis thaliana) (UniProt Q9M2R0).
T3 sequence: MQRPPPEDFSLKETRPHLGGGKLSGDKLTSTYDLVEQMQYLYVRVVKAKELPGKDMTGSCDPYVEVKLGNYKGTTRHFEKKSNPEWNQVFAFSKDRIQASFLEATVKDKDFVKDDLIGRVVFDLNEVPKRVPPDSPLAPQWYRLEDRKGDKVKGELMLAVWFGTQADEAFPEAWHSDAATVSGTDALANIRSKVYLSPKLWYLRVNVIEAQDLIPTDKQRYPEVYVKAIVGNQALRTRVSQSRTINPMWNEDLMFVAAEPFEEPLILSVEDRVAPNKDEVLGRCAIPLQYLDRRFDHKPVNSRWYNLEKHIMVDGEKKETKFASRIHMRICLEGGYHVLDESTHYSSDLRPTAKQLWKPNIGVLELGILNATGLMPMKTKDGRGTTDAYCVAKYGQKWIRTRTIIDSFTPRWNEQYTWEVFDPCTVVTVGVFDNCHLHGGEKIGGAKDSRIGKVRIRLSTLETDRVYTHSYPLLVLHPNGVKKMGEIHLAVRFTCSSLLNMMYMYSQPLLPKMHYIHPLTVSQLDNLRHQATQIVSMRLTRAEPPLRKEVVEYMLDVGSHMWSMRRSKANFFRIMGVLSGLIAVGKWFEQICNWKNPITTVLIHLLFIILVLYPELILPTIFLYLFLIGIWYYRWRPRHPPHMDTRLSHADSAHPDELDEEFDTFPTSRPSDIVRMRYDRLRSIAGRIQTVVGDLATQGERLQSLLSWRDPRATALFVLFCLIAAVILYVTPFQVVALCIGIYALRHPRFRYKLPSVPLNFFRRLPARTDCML

As for REM1.2 (from UniProt Q9M2D8), the binding result in assay [1] and in assay [2] was “binds” in each case.
With REM1.3 (from UniProt O80837), the binding entry in assay [1] and in assay [2] was “binds” each time.
As for “SUCROSE SYNTHASE 6 (from UniProt Q9FX32 1-942) (enzyme)”, the binding entry in assay [1], in assay [2] and in assay [3] was “binds” throughout.
